Results as given in article PMC9533486.
These are yes or no findings as the source states them, for the method shown. Binding seen in cells or lysates may run through a third protein. Some binding calls cover weakened binding; strength is not graded here.

Amino acid sequences for entries named in this document (tags omitted).
UniProt Q9Y297: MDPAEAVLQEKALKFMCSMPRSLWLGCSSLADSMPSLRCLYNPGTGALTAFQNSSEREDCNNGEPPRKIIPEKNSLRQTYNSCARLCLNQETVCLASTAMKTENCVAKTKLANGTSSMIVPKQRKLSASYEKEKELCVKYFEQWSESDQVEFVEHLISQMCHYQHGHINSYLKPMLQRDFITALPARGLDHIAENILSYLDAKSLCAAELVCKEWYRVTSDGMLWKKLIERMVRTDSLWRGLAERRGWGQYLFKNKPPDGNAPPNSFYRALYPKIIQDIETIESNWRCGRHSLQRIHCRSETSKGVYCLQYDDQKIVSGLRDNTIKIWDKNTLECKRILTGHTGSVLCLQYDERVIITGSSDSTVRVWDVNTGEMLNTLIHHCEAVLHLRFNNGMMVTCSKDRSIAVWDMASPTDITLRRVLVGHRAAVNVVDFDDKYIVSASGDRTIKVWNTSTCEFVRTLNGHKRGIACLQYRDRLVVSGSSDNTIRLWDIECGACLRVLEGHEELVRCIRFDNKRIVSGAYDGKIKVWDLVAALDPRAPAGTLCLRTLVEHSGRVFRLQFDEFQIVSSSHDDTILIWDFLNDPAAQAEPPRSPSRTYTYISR
UniProt P01106: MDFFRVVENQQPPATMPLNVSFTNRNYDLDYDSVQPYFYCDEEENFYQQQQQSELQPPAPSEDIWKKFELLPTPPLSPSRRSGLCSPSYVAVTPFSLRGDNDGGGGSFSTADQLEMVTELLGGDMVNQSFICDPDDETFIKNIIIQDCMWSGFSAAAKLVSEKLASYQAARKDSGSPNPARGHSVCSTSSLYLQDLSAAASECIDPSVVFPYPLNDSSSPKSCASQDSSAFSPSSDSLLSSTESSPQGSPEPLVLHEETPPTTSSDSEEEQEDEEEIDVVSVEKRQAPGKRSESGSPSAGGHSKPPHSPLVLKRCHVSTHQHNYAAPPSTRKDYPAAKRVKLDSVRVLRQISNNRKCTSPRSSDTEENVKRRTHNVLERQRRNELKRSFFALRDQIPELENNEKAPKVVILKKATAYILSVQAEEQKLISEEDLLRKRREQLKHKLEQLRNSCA
UniProt Q07955: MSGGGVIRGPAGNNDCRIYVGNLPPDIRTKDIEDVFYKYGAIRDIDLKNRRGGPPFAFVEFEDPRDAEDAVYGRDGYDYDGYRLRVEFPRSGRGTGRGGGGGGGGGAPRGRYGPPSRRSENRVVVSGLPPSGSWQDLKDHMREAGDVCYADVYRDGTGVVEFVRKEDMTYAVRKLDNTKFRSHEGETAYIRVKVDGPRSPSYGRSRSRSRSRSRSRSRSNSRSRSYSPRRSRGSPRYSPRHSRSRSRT

Tests used:
[1] = biological target: β-TrCP (Beta-transducin repeat containing E3 ubiquitin protein ligase) (human (endogenous in CNE2 and 5-8F)) (UniProt Q9Y297); test: co-IP; CNE2 and 5-8F cells transfected with Flag tagged c-Myc; antibody on protein A/G magnetic beads, lysate overnight at 4 °C, western blotting
[2] = biological target: β-TrCP (Beta-transducin repeat containing E3 ubiquitin protein ligase) (human (endogenous in CNE2 and 5-8F)) (UniProt Q9Y297); test: co-IP; endogenous proteins of CNE2 and 5-8F lysates; IP with anti-β-TrCP, anti-phosphorylated (T58 + S62) c-Myc or anti-c-Myc antibody on protein A/G magnetic beads, overnight at 4 °C, western blotting; also after overexpression or knockdown of circPVT1
[3] = biological target: c-Myc (human (endogenous in CNE2 and 5-8F)) (UniProt P01106); test: as above

binding [2]	Substance	also measured
	Flag tagged c-Myc (from UniProt P01106 1-454)	binding [1]: binds
binds	c-Myc (from UniProt P01106 1-454)	
	SRSF1 (Serine and arginine rich splicing factor 1) (from UniProt Q07955 1-248)	binding [3]: binds
binds	phosphorylated c-Myc (T58 + S62) (from UniProt P01106 1-454)	
